Our source for the binding signal values is article PMC7819943, “Rice protein-binding microarrays: a tool to detect cis-acting elements near promoter regions in rice”.

Protein sequences, listed by entry. Tags and fused reporters are not part of them.
UniProt Q0JBA9, entry or part of it: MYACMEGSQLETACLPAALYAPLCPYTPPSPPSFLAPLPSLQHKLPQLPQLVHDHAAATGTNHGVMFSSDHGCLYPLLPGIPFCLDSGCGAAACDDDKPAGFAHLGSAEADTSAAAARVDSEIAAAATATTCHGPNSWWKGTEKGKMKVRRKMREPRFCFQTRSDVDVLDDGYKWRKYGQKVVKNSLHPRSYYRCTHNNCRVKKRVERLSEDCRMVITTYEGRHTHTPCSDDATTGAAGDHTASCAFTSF

The other results are listed elsewhere or left out.

For the experiment, the target named is OsWRKY34 (Oryza sativa, UniProt Q0JBA9 1-250). Kind of experiment: protein-binding microarray (RPBM); PBS, 2% BSA, 51.3 ng/ul salmon testes DNA, 50 uM zinc acetate, 200 nM TF, 25 C, 1 h; high values mean tight binding. To be noted: protein: recombinant; tags: N-terminal polyhistidine and DsRed monomer fusion (pET32a); label: CyDye5-dUTP incorporated in the synthesized complementary strand; 3' TTTTT single-stranded linker to array surface; dsDNA, one strand shown. The method in brief:
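Ni–NTA purification followed expression in E. coli BL21-CodonPlus of transcription factors fused N-terminally to a polyhistidine tag and DsRed. At 200 nM in PBS with 2% BSA, salmon testes DNA and 50 µM zinc acetate, the protein was incubated for 1 h at 25 °C with a custom Agilent array that had been primer-extended with Cy5-dUTP and blocked with 2% BSA. After washing, the array was read on an Axon 4000B scanner. The binding signal is per-feature fluorescence intensity in arbitrary units.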
Take “ATATTCTCCTATCACATGTGCGGGGCTTATCCCTTCCACCCGGAGTCACCTAGTGCAG”: the binding signal was 9630 fluorescence intensity (a.u.).
In the case of “ATGGAGAGGCAACATAGACTTTTTTCCCAGGTTAAAACCACGGAGTCACCTAGTGCAG”, the binding signal is 8330 fluorescence intensity (a.u.).
On to “AATTTTTTTTCAGCTGATCGCCACTTTATTCTTTTCATACCGGAGTCACCTAGTGCAG”, for which the binding signal was 10200 fluorescence intensity (a.u.).
With “ATCTTAACCATGTCATCAGGCACTTCGTTTGCTAGCCATGCGGAGTCACCTAGTGCAG” the figure was 8210 fluorescence intensity (a.u.).
As for “TCATGTCGTTTCTAATCTGGTGCCTGTCCTCTATCCTTAACGGAGTCACCTAGTGCAG”, the binding signal was 9740 fluorescence intensity (a.u.).
On to “TAGGGCTTACACCGTCGTTTTCGCTCCCTTTTGGCTGCCTCGGAGTCACCTAGTGCAG”, for which the binding signal is 9010 fluorescence intensity (a.u.).
On to “ACCTTTATAAAAAAAGTCTAATTATTGCCTAGCTTTTTCCCGGAGTCACCTAGTGCAG”, for which the binding signal is 9380 fluorescence intensity (a.u.).
For “ATGGCCACTTGTCTTTTTCTTTAGTTACTACCAATTTCTACGGAGTCACCTAGTGCAG”, the binding signal is 10400 fluorescence intensity (a.u.).
With “TCGCCGGCGGAGGAGTTGGTGTGGAGAGGGCGGGGAGATGCGGAGTCACCTAGTGCAG”, the binding signal was 9560 fluorescence intensity (a.u.).
As to “GTAGCAATGGGCGGCGGGGAGCGGGGCTGAGCGGCAGCCGCGGAGTCACCTAGTGCAG”, the binding signal was 8150 fluorescence intensity (a.u.).
With “ACTGATTTCCCGTCTATCCTGTGGCACCATTCATACTTCACGGAGTCACCTAGTGCAG”, the binding signal is 12500 fluorescence intensity (a.u.).
On to “TTTTTGGTTTGCGTTTCTTAGAACTGGAGTGTTTTTTTTTCGGAGTCACCTAGTGCAG”, for which the binding signal was 9740 fluorescence intensity (a.u.).
“GACCTGATTCTTTGCCTTCGTAAATTCCGTCAACGCACCTCGGAGTCACCTAGTGCAG”: the binding signal is 10400 fluorescence intensity (a.u.).
As to “ACCCGTCTTGCAAAGTTGCCAATCGTCAAGGCCTCGCACGCGGAGTCACCTAGTGCAG”, the binding signal is 9940 fluorescence intensity (a.u.).
For the sequence “CATTCTCCGCGCGGACGCTTTTCAAACTGCTAAACGGTATCGGAGTCACCTAGTGCAG”, the binding signal was 11000 fluorescence intensity (a.u.).
Take “GGTAGTCTTTAGTTTGCTTTTTTTTCATGATTGGTGTCTTCGGAGTCACCTAGTGCAG”: the binding signal was 8820 fluorescence intensity (a.u.).
For the sequence “AGCCCATTGTTTGACACAGCCGTCTCCTCTCCATCTCTCCCGGAGTCACCTAGTGCAG”, the binding signal was 8270 fluorescence intensity (a.u.).
With “TCCAAACCACCACACAAACGGCGTCCCAGTGCGCACTTATCGGAGTCACCTAGTGCAG”, the binding signal is 8880 fluorescence intensity (a.u.).
Regarding “TTGGTGGTTGGTGGGGAGCGTGGAGATGGCGGGGCTGTCCCGGAGTCACCTAGTGCAG”, the binding signal is 22200 fluorescence intensity (a.u.).
As for “ATCCGTGTCAGCGTCACTCATCACGCACGCACCCATCAAACGGAGTCACCTAGTGCAG”, the binding signal is 9290 fluorescence intensity (a.u.).
Take “ATAAATATGCCCCGGATCCATCTCTCCACCGCATCTCTCCCGGAGTCACCTAGTGCAG”: the binding signal was 9230 fluorescence intensity (a.u.).
With “TCCCTATAGAATATCTTCTCGGTTTTTACATGTCACCTAACGGAGTCACCTAGTGCAG”, the binding signal is 9420 fluorescence intensity (a.u.).
Regarding “CTCCACCATCTCCCCGCATCCATCCTCACATCGCGCGGGACGGAGTCACCTAGTGCAG”, the binding signal is 9230 fluorescence intensity (a.u.).
Consider “GGGTTTCCGCCGCCTCTCGTCCGCCTCGCCGACCTCGGACCGGAGTCACCTAGTGCAG”, for which the binding signal was 10900 fluorescence intensity (a.u.).
On to “CTCCATTTCCAACTTCCACTGTAGTTAGCTCGTGCAGGCACGGAGTCACCTAGTGCAG”, for which the binding signal was 11900 fluorescence intensity (a.u.).
For the sequence “AATCGTTGAACCCTACTGCACGTGCACTTGTATTTATTTTCGGAGTCACCTAGTGCAG”, the binding signal is 11400 fluorescence intensity (a.u.).
With “ACTCCCTCCATCTTATGATTTTGACTTTTGCTTGCACTGTCGGAGTCACCTAGTGCAG”, the binding signal is 8490 fluorescence intensity (a.u.).
“TCTATTTCGGACGCAAATCACACACTTCCTATCCATCTCTCGGAGTCACCTAGTGCAG”: the binding signal is 8720 fluorescence intensity (a.u.).
For “CCACCACCGCCGTGAGCTTGCCCCGCACTGGATCGGCCCTCGGAGTCACCTAGTGCAG”, the binding signal was 8160 fluorescence intensity (a.u.).
With “ATTGTTCTAGTAGTCCACCGTTTTTCTTGGATTTTCTTCACGGAGTCACCTAGTGCAG” the figure was 12000 fluorescence intensity (a.u.); with “AATTTTGACTTTTTCTTGACTAATTAGGCCATCCGATGGGCGGAGTCACCTAGTGCAG”, 17800 fluorescence intensity (a.u.).
Regarding “GTGAGTGTGAGCGGTTTGCATGTTCTTTCTAGACAAATTTCGGAGTCACCTAGTGCAG”, the binding signal is 8160 fluorescence intensity (a.u.).
With “ACGCCCACTGGTACTACTTTGCCATAGATTCTTTTTATTCCGGAGTCACCTAGTGCAG” the figure was 10300 fluorescence intensity (a.u.).
As to “AACTCTCTCCGCTCCAAACGACTAGCTCGATCACTTGCTACGGAGTCACCTAGTGCAG”, the binding signal was 8740 fluorescence intensity (a.u.).
With “CCCGCTCGCCGCCACCGTGTCACGCCGGCAGCCTCAGGTTCGGAGTCACCTAGTGCAG” the figure was 8860 fluorescence intensity (a.u.).
With “CCCCACCCCTGCGCGGCCTCCTCGCGCGCACGGCCGGCGCCGGAGTCACCTAGTGCAG” the figure was 9680 fluorescence intensity (a.u.); with “CTATGGTTTGGTTTGAATTTTACTGTTGTATGCTGTTCCCCGGAGTCACCTAGTGCAG”, 8660 fluorescence intensity (a.u.).
“TCACCTCATTTTACGTATCTTCCCAATTTCCTTTATCTCCCGGAGTCACCTAGTGCAG”: the binding signal is 13600 fluorescence intensity (a.u.).
With “CTCCATGCCAATCCTCGTGTAAACTCTCATTCCTCTTCTCCGGAGTCACCTAGTGCAG” the figure was 11500 fluorescence intensity (a.u.).
As to “CTCTCTCTCTCTCTCTCTCTCTGCTCCCGCCGGAGGCAACCGGAGTCACCTAGTGCAG”, the binding signal is 9040 fluorescence intensity (a.u.).
Then “GTCCCTAGGCGGTTTTGACTCCAGTTTTGTCCCACGTGGCCGGAGTCACCTAGTGCAG”, with 11800 fluorescence intensity (a.u.); and “TCATGGATTTCGCCCCTTCTCAGCCTCAATCTCGGCACCACGGAGTCACCTAGTGCAG”, with 8070 fluorescence intensity (a.u.).
